{
  "sequences": {"note": "Sequences of proteins named here, by UniProt entry; tags and fusion partners are left off. A change or cut given only in a name is not applied to a line headed by its entry.", "UniProt Q13438": "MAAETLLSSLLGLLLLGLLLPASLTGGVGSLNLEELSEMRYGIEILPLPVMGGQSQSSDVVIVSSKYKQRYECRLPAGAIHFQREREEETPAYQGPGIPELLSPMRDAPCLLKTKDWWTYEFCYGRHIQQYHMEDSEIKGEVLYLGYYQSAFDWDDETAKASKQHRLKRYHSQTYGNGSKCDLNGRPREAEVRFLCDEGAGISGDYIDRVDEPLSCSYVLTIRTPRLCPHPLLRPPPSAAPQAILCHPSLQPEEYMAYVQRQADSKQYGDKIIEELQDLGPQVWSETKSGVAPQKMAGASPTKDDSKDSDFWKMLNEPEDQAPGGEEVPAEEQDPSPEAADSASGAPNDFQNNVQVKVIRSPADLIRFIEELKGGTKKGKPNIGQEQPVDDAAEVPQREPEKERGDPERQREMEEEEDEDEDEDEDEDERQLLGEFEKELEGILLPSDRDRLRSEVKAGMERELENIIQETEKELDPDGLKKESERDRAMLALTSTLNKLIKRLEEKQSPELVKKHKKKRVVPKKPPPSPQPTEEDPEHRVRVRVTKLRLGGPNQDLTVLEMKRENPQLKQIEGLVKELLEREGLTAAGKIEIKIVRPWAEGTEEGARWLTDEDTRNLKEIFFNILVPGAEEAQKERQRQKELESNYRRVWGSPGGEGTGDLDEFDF", "UniProt O75459": "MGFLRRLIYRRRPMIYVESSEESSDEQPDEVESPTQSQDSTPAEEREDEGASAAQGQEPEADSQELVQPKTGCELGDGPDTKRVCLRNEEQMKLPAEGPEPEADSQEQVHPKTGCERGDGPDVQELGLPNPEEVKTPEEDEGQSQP", "UniProt P52948": "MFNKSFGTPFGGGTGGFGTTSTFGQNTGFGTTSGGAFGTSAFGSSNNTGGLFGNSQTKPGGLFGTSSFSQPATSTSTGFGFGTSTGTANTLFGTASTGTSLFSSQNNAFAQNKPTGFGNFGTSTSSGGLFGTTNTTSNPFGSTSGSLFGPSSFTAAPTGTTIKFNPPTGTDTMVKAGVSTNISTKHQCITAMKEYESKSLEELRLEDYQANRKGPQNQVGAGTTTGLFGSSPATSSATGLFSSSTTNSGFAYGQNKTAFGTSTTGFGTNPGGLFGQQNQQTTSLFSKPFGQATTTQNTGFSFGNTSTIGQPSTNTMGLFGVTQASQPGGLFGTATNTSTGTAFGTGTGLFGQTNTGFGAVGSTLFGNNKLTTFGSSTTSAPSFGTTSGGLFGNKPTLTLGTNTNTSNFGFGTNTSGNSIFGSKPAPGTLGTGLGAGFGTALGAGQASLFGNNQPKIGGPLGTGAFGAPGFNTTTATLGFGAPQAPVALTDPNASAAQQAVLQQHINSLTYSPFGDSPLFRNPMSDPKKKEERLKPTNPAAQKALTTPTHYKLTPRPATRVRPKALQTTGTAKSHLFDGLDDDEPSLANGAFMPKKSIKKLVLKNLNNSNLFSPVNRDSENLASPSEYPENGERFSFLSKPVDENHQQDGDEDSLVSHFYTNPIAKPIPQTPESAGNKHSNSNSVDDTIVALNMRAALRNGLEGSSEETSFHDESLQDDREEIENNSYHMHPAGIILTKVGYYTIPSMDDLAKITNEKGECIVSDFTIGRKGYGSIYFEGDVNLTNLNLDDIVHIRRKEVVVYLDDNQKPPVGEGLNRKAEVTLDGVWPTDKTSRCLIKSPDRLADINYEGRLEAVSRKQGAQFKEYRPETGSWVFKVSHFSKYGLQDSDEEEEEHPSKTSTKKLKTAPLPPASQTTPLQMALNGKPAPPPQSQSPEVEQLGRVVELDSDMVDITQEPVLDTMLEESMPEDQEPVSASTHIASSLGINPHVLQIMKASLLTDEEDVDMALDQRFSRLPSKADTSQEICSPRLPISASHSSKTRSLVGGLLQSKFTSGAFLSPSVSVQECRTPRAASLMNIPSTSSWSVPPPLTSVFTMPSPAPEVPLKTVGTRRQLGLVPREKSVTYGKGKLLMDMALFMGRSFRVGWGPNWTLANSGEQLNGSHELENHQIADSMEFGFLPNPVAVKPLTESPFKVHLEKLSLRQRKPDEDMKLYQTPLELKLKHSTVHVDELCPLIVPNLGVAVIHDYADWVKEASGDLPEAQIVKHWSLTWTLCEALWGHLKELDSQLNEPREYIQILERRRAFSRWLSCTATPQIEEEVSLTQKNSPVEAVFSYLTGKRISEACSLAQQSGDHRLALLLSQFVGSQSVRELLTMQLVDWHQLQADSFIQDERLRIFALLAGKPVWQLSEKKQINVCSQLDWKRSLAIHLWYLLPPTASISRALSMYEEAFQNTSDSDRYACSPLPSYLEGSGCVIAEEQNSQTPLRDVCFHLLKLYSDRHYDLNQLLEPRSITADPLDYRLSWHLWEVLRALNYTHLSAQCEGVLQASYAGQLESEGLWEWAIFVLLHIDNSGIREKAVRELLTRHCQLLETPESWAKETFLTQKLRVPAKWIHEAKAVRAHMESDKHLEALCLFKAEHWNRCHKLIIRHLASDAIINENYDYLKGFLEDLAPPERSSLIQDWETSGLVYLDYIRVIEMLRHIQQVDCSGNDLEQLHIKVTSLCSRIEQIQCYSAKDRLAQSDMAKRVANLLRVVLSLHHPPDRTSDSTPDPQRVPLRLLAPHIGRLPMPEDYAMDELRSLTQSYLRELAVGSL", "UniProt Q9BZF3": "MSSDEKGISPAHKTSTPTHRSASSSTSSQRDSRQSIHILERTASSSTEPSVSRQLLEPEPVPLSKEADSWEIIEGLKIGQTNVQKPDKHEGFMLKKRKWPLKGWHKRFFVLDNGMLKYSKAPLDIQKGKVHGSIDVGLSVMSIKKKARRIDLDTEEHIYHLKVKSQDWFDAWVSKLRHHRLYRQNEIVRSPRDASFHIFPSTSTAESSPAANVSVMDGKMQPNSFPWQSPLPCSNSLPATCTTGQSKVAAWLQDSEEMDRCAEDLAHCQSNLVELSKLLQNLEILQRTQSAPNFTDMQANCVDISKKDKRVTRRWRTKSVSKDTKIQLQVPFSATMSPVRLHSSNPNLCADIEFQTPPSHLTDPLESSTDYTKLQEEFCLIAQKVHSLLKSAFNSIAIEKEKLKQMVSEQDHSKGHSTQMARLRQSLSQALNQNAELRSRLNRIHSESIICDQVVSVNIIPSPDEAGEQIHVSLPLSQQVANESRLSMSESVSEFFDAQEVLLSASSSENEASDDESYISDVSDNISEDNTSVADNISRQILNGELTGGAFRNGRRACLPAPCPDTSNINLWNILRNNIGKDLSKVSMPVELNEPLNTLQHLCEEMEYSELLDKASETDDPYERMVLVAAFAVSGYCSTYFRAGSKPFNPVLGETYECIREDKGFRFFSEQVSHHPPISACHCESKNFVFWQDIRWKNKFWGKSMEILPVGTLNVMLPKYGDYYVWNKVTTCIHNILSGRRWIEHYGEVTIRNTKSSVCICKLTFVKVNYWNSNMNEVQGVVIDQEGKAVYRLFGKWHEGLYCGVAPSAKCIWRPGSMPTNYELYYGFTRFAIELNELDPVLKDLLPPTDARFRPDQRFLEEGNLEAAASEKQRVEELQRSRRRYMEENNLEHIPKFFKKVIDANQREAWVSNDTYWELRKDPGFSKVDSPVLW", "UniProt P55809": "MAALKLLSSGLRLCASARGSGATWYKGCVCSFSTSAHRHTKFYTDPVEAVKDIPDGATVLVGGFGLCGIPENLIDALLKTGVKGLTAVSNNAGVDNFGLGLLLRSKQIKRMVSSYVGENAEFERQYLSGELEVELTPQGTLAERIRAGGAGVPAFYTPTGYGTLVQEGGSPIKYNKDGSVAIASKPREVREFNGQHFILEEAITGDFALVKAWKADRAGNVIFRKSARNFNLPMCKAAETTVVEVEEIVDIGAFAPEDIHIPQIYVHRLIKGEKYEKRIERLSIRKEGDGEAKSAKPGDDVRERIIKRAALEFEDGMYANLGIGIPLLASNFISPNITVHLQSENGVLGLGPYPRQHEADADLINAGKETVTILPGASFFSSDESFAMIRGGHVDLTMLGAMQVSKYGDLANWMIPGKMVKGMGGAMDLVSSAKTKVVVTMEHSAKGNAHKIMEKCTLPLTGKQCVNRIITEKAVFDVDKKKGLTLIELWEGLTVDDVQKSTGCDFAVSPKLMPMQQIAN", "UniProt P35658": "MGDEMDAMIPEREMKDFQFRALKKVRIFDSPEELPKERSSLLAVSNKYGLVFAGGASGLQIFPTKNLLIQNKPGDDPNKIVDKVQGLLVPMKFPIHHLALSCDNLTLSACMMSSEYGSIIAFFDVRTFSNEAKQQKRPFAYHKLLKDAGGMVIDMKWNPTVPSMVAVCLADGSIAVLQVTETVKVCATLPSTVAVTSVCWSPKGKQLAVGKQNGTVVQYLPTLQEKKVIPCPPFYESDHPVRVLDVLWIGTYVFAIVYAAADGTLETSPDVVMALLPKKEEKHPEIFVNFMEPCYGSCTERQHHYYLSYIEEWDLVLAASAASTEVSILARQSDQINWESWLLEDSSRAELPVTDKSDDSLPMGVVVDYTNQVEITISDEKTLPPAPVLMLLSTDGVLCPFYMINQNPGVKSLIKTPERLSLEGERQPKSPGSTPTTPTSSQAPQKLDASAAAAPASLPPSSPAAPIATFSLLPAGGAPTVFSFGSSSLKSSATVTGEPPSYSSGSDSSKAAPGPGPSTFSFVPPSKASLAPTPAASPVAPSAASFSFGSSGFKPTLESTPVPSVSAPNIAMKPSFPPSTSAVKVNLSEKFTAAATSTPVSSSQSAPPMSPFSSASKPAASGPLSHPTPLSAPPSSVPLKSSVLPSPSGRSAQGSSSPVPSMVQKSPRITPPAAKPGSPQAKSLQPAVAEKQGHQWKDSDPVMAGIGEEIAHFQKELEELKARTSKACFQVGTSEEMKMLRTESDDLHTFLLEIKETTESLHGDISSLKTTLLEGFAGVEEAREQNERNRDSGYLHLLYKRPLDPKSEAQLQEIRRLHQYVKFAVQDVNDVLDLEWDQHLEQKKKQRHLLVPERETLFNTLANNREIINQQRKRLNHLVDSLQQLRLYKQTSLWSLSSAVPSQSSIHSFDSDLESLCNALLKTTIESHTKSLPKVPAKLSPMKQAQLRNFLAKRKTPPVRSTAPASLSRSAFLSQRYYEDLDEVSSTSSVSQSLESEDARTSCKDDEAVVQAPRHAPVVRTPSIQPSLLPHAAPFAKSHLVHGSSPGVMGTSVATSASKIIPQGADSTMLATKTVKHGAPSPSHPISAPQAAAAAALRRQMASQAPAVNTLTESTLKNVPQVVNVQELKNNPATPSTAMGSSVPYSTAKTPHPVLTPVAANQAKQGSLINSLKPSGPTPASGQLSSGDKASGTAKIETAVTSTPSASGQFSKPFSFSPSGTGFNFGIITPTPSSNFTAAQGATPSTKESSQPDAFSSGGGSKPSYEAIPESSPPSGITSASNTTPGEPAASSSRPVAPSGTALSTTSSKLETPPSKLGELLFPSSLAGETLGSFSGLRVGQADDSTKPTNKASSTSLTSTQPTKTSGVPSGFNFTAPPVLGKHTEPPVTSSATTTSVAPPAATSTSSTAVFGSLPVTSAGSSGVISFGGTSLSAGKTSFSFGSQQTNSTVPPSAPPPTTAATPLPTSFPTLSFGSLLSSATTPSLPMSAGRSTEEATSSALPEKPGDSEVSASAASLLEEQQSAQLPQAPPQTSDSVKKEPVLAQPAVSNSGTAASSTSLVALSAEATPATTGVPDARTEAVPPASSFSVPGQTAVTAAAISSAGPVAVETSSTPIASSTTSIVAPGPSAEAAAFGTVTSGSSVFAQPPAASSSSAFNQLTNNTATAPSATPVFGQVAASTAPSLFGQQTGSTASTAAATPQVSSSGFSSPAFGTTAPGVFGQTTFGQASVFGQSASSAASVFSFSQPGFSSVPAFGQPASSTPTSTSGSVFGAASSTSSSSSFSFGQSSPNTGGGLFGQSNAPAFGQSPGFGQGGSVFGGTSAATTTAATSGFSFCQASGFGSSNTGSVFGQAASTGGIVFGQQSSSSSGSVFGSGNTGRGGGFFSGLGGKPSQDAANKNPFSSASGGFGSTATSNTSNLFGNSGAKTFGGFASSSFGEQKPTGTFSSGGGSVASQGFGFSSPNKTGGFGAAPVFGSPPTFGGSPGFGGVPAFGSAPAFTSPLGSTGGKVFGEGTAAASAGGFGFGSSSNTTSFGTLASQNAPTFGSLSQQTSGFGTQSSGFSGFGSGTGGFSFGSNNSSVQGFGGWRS", "UniProt Q9H300": "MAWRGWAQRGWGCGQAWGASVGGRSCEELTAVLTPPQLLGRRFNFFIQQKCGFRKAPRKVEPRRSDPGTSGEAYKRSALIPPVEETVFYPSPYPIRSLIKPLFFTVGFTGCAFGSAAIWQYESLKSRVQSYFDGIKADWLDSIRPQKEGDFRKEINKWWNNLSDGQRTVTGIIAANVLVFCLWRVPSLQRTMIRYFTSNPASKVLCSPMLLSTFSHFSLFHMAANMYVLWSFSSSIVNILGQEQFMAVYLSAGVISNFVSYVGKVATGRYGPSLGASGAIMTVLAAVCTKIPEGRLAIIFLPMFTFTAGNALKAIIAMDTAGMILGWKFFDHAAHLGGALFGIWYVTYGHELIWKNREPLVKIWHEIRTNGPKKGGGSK"},
  "source": "the supplement of paper PMC10849652",
  "note": "This is one part of the list.",
  "data": [
    {"compound": "CC1=C(C(CC(=O)N1)C2=CC=C(C=C2)C(F)(F)F)C(=O)NC3=C(C=C4C(=C3)C=NN4)F", "assay": "log2 fold change, soluble protein after heating vs DMSO (PISA); higher = thermal stabilisation; K562 lysate, 10 uM; active = over 0.2 and 3.5 SD of the protein, either way, in both replicates (recomputed)", "method_in_brief": "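To prepare the extract, K562 pellets were dounce-homogenised in PBS pH 7.4 with 1 mM MgCl2, giving crude material at 1 mg/mL protein. This was treated with 10 μM compound for 30 min, then heated in aliquots for 3 min over 48°C-58°C before pooling and addition of NP-40 to 0.5% at 4°C. Centrifugation at 21,000xg for 90 min left soluble protein in the supernatant, which TMTpro 16plex LC-MS/MS quantified with equalised channel sums. Results are log-two fold changes in thermal stability compared with solvent controls, from duplicates.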", "values": [
      {"target": "OBI1 (UniProt Q5W0B1)", "log2 fold change": "inactive: 0.041"},
      {"target": "OBSL1 (UniProt O75147)", "log2 fold change": "inactive: 0.061"},
      {"target": "OGDH (UniProt Q02218)", "log2 fold change": "inactive: 0.032"},
      {"target": "PAAF1 (UniProt Q9BRP4)", "log2 fold change": "inactive: 0.014"},
      {"target": "OS9 (UniProt Q13438)", "log2 fold change": "inactive: 0.024"},
      {"target": "PARK7 (UniProt Q99497)", "log2 fold change": "inactive: -0.036"},
      {"target": "PAGE1 (UniProt O75459)", "log2 fold change": "inactive: -0.06"},
      {"target": "OSBPL3 isoform 2 (UniProt Q9H4L5)", "log2 fold change": "inactive: 0.018"},
      {"target": "PAICS (UniProt E9PBS1)", "log2 fold change": "inactive: -0.064"},
      {"target": "OSTF1 (UniProt Q92882)", "log2 fold change": "inactive: -0.019"},
      {"target": "PAIP1 (UniProt Q9H074)", "log2 fold change": "inactive: -0.004"},
      {"target": "OGFOD1 (UniProt Q8N543)", "log2 fold change": "inactive: -0.036"},
      {"target": "P4HB (UniProt P07237)", "log2 fold change": "inactive: -0.023"},
      {"target": "OGFR (UniProt Q9NZT2)", "log2 fold change": "inactive: 0.001"},
      {"target": "OTUD4 (UniProt Q01804)", "log2 fold change": "inactive: 0.018"},
      {"target": "PACC1 (UniProt Q9H813)", "log2 fold change": "inactive: -0.058"},
      {"target": "NUP98 (UniProt P52948)", "log2 fold change": "inactive: 0.034"},
      {"target": "OCRL (UniProt Q01968)", "log2 fold change": "inactive: 0.013"},
      {"target": "OXR1 (UniProt Q8N573)", "log2 fold change": "inactive: -0.01"},
      {"target": "PARG (UniProt Q86W56)", "log2 fold change": "inactive: -0.017"},
      {"target": "PARD3 (UniProt Q8TEW0)", "log2 fold change": "inactive: 0.011"},
      {"target": "OSBPL6 isoform 5 (UniProt Q9BZF3)", "log2 fold change": "inactive: -0.032"},
      {"target": "OLA1 (UniProt Q9NTK5)", "log2 fold change": "inactive: -0.023"},
      {"target": "P4HA1 (UniProt P13674)", "log2 fold change": "inactive: -0.024"},
      {"target": "PANX1 (UniProt Q96RD7)", "log2 fold change": "inactive: -0.07"},
      {"target": "OPLAH (UniProt O14841)", "log2 fold change": "inactive: 0.016"},
      {"target": "OIP5 (UniProt O43482)", "log2 fold change": "inactive: -0.084"},
      {"target": "OXCT1 (UniProt P55809)", "log2 fold change": "inactive: -0.018"},
      {"target": "OSBPL11 (UniProt Q9BXB4)", "log2 fold change": "inactive: -0.009"},
      {"target": "NUP214 (UniProt P35658)", "log2 fold change": "inactive: -0.007"},
      {"target": "PARL (UniProt Q9H300)", "log2 fold change": "inactive: 0.017"},
      {"target": "OAT (UniProt P04181)", "log2 fold change": "inactive: -0.045"},
      {"target": "OGA (UniProt O60502)", "log2 fold change": "inactive: 0.005"},
      {"target": "OCIAD1 (UniProt Q9NX40)", "log2 fold change": "inactive: 0.027"}
    ]}
  ]
}
